This is an account of results in patent US20190367589A1.

Substitutions are numbered along the chain they refer to. No constants are given. Whether binding was seen depends on the method and setting. Binding calls can cover weak binding; strength is not graded here.

For the assay, the target named is mouse Jagged 1 (mouse). Description: ELISA as for the other curves; sheet and legend say mouse Jagged 1, the method lists rat Jagged 1-Fc as the coated protein. (In general: An ELISA detects its analyte on a solid surface through an enzyme-linked reagent.)

B1: anti-Jagged 13 IgG (antibody, V domains shown)
VH: EVQLLESGGGLVQPGGSLRLSCAASGFTFSSYAMSWVRQAPGKGLEWVSSIETQGPTTLYADSVKGRFTISRDNSKNTLYLQMNSLRAEDTAVYYCAKTSSAFDYWGQGTLVTVSS
VL: DIQMTQSPSSLSASVGDRVTITCRASQSISSYLNWYQQKPGKAPKLLIYASSLQSGVPSRFSGSGSGTDFTLTIGSLQPEDFATYYCQQNVATPLTFGQGTKVEIKR
Regarding B1, the binding entry is “binds”.

B2: anti-Jagged 32 IgG (antibody, V domains shown)
VH: B1 VH with T53Q, Q54M, P56W, T57Q, L59Y, T99S, S100A, S101A
VL: B1 VL with S51A, G75S, N90T, A92V, T93A
As for B2, the binding result is “binds”.
